# In PMC9474883, “Novel tricyclic small molecule inhibitors of Nicotinamide N-methyltransferase for the treatment of metabolic disorders” (Scientific Reports, 2022):
# The amount applied is not stated for every result.
# Test system: NNMT (endogenous MNA levels)
# Experiment: Determination of MNA in cells (Target engagement)
# Format: cell-based, human
# Procedure: As next steps, cellular assays using the human U2OS cell line were carried out. This assay, described in[6], measures inhibition of endogenous NNMT, without recombinant expression, by quantification of MNA via LC–MS/MS. […] EC50 values were higher by a factor of ~ 30 compared to IC50 values on the isolated recombinant hNNMT, probably reflecting low cell membrane permeability.
row,SMILES,time point after addition of compound at which maximal MNA reduction was observed [h]
1,CN1Cc2cccc3c2N(CCC3)C1=N [Compound (1)],0.5
2,CN1Cc2c(F)c(F)cc3c2N(CCC3)C1=N [Compound (3)],1.0
3,Br.CN1Cc2cc(F)cc3c2N(CCO3)C1=N [Compound (18)],0.5
4,"Br.CN1Cc2c(F)c(F)cc3c2N(CC3)C1=N [Compound (9), 8,9-difluoro-2-methyl-1,2,5,6-tetrahydro-3H-pyrrolo[3,2,1-ij]quinazolin-3-imine hydrobromide]",0.25
5,CN1Cc2cc(F)cc3c2N(CCC3)C1=N [Compound (2)],0.5
6,CN1Cc2cccc3c2N(CCS3)C1=N [Compound (13)],1.0
